This continues a long series; more values of the same kind are listed elsewhere.
Tested on: brain
Assay: Genes induced in the brain following kainic acid-induced seizures (microarray)
Format: in vivo, rat
Design: key: NC = No Change
Method: Status epilepticus is produced by intraperitoneally injecting a glutamate analogue/excitotoxin, kainic acid (10 mg/kg i.p.). Animals with kainate-induced seizures are observed following drug administration to ensure that they continue to have complex seizures over a 30 minute period.
All animals are allowed to survive for 24 hours following each treatment. At that time they are deeply anesthetized with ketamine (100 mg/kg) and xylazine (20 mg/kg) given intraperitoneally. Once anesthetized, the chest is opened and a direct cardiac puncture performed with a syringe and 10 cc of blood is aspirated. Immediately following removal of the blood, the animal is decapitated while deeply anesthetized and the brain removed.
One day after hypoxia, status epilepticus, hypoglycemia, ischemic stroke, and hemorrhagic stroke are produced in adult rats, RNA or protein is isolated from the blood cells and from the brains of the animals described in Example 1. The pattern of genes or proteins expressed in the blood cells following each of these types of injury—hypoxia, status epilepticus, hypoglycemia, ischemic stroke, and hemorrhagic stroke is captured on a commercially available microarray (Affymetrix chip). The pattern of gene or protein expression is defined using an expression method, which then forms a genomic or proteomic organ injury database, which is used in assessing injury.
Note that the genes induced in the blood are different from the genes induced in the brain. Therefore, different organs express different genes. In addition, the genes induced by hypoxia in the blood are different from the genes induced by hypoxia in the brain. That is, the same stimulus induces different genes in different organs. Lastly, even though similar genes are induced in the brain by ischemia (stroke) and kainic acid-induced seizures, there are many differences in the gene expression between the two. Therefore, the pattern of gene expression in the brains of ischemic animals is distinctive from the pattern of expression of the kainate animals, and this pattern can be used to diagnose the different conditions of stroke and status epilepticus, even though many of the same genes are induced in the two conditions.
In further support, the following Tables 5 and 6 list those genes induced in the brain following stroke, kainic induced seizures, and hypoxia as compared with untouched controls and sham-operated controls.

C=C(C)[C@H]1CN[C@H](C(=O)O)[C@H]1CC(=O)O [kainate, kainic acid]
Kainic Acid Seizure (fold change) (D10729_s_at Rat RNA for proteasome subunit RC): 4.9 fold change
Kainic Acid Seizure (fold change) (M92433exon#1 Rattus norvegicus nerve growth factor-induced clone C (NGFI-C) gene): NC
Kainic Acid Seizure (fold change) (d00575_at_ Rattus norvegicus RNA for pituitary glycoprotein hormone alpha-subunit precursor, complete cds): NC
Kainic Acid Seizure (fold change) (rc_aa859740 EST): NC
Kainic Acid Seizure (fold change) (rc_aa892578_ EST): 2.7 fold change
Kainic Acid Seizure (fold change) (rc_ai178267 EST): NC
Kainic Acid Seizure (fold change) (rc_ai639149 EST): NC
Kainic Acid Seizure (fold change) (x62952 R. norvegicus RNA for vimentin): 3.2 fold change
Kainic Acid Seizure (fold change) (x91810_at R. norvegicus RNA for Stat3 protein): NC
